Test results: patent publication US8592394B2, “Synthetic derivatives beta glycolipids and compositions thereof for the treatment of pathologic disorders” (Enzo Therapeutics, Inc., priority 2003, dated 2013)
At least one structure is not confirmed: it was looked up by name or label, or the drawing left a doubt.

What was measured:
Format in all cases: in vivo
[1] = test system: IFN-γ; assay: Serum IFN-γ by sandwich ELISA in ConA induced hepatitis; conditions: C57Bl/6 mice, intraperitoneal
Protocol: Serum levels of IFN-γ, TGF-β, TNF-α IL-2, IL-4, IL-6, IL-10 and IL-12 were determined by “sandwich” ELISA, using commercial kits (Quantikine, R&D Systems, Minneapolis, Minn., USA). Serum insulin was also determined by “sandwich” ELISA too, using the commercial kit of Mercodia AB (Uppsala, Sweden) according to the manufacturer's instructions.
(§1) Assessment of the effect of any of the synthetic analogs on the immune response was next determined by analysis of the cytokine serum level of IFNγ in each animal using a commercial “sandwich” ELISA kit, and by FACS analysis of intrahepatic and intrasplenic (peripheral) lymphocytes levels.

[2] = test system: intrahepatic and intrasplenic lymphocytes; assay: FACS analysis of intrahepatic and intrasplenic lymphocytes (NKT, CD4, CD8); conditions: ConA induced hepatitis, C57Bl/6 mice, intraperitoneal
Protocol: Splenocytes and intrahepatic lymphocytes were isolated as follows: livers and spleens were kept in RPMI-1640+FCS. Then spleens were crushed through a 70 μm nylon cell strainer (Falcon) and centrifuged (1250 rpm for 7 min) for the removal of cell debris. Red blood cells were lysed with 1 ml of cold 155 mM ammonium chloride lysis buffer and centrifuged (1250 rpm for 3 min). Splenocytes were resuspended with 1 ml RPMI+FCS. Cell viability by trypan blue staining was above 90%. For intrahepatic lymphocytes, livers were crushed through a stainless mesh (size 60, Sigma) and the cell suspension was placed in a 50-ml tube for 5 min. Lymphoprep (10 ml, Ficoll, Axis-Shield PoC AS, Oslo, Norway) was placed under similar volume of cell suspension in 50-ml tubes. Tubes were centrifuged at 1800 rpm for 18 min. Cells in the interface were collected and centrifuged at 1800 rpm for 10 min, to obtain a pellet of cells depleted of hepatocytes to a final volume of 250 μl. Approximately 1×10^6 cells/mouse liver, were recovered.
For ConA induced hepatitis experiments, flow cytometry was performed immediately following splenocyte and hepatic lymphocyte isolation using 1×10^6 lymphocytes in 100 μl PBS with 0.1% BSA. To determine the percentage of NKT lymphocytes, FITC anti-mouse CD3 and PE anti-mouse NK1.1 antibodies were used (eBioscience, USA). CD4 and CD8 subsets were detected using FITC anti-mouse CD3 and PE-anti-mouse CD4 or CD8 antibodies. Cells were incubated for 30 min at 4° C. in the dark, washed, and resuspended in 200 μl of PBS with 0.1% BSA. Analytical cell sorting was performed for 1×10^6 cells from each group using a fluorescence-activated cell sorter (FACSTAR plus, Becton Dickinson). Only live cells were counted, and unstained cells served as controls for background fluorescence. Gates were set on the forward and side scatter to exclude dead cells and red blood cells. Data were analyzed using either the Consort 30 two-color contour plot program (Becton Dickinson, Oxnard, Calif.) or the CELLQuest 25 program.
as §1

[3] = test system: ConA induced hepatitis; assay: ConA induced hepatitis model: serum AST and ALT (liver injury); conditions: C57Bl/6 mice, intraperitoneal, 1 μg/mice
Protocol: The effect of β-glycolipids on liver injury was evaluated by serum aspartyl transaminase (AST) and alanine aminotransferase (ALT) activities, which were determined by a clinical chemistry analyzer, Reflovet Plus (Roche Diagnostics, GmbH, Mannheim, Germany).
Con A was purchased from MP Biomedicals (Ohio, USA), was dissolved (0.5 mg, 20 mg/kg) in 200 μl of 50 mM Tris pH 7, 150 mM NaCl, 4 mM CaCl2, and was injected intravenously into mice (tail vain). Sera from individual mice were obtained 8 or 20 h after Con A injection. Serum activities of alanine aminotransferase (ALT) and aspartate aminotransferase (AST) were measured by an automatic analyzer.
To determine the clinical and immunological effect of the novel synthetic compounds of the invention, immune-mediated hepatitis was examined using the ConA induced hepatitis model. […]
In order to evaluate the potential beneficial effect of the three novel analogues of the invention on immune-mediated hepatitis, the effect of treatment with two concentrations of the three synthetic analogs on liver damage in all tested groups was assessed by determination of serum aspartate aminotransferase (AST), and alanine aminotransferase (ALT) levels.

| Compound | IFNγ serum levels ([1]; high dosage 10 μg/mice) | IFNγ serum levels ([1]; low dosage 1 μg/mice) | intrahepatic NKT cell levels ([2]; high dosage 10 μg/mice) | intrahepatic/peripheral ratio of NKT cells ([2]; high dosage 10 μg/mice) | peripheral/intrahepatic ratio of the CD4/CD8 ratio ([2]; high dosage 10 μg/mice) | intrahepatic NKT cell levels ([2]; low dosage 1 μg/mice) | intrahepatic/peripheral ratio of NKT cells ([2]; low dosage 1 μg/mice) | peripheral/intrahepatic ratio of the CD4/CD8 ratio ([2]; low dosage 1 μg/mice) | serum ALT levels [3] | serum AST levels [3] |
| --- | --- | --- | --- | --- | --- | --- | --- | --- | --- | --- |
| CCCCCCCCCCCCC/C=C\C(O)C(CO[C@@H]1OC(CO)[C@@H](O)C(O)C1O)NS(=O)(=O)CCCCCCCCCCCCCCCC (stereo partly drawn) [AD2899, Hexadecyl-sulfonamido-glucosylsphingosine] | decrease | decrease | decrease | decrease | increase | – | – | – | – | – |
| CCCCCCCCCCCCC/C=C\C(O)C(CO[C@@H]1OC(CO)[C@@H](O)C(O)C1O)NS(=O)(=O)CCCCCCCC (stereo partly drawn) [AD2898, Octyl-sulfonamido-glucosylsphingosine] | decrease | decrease | – | – | – | decrease | decrease | increase | decreased | decreased |
